Measurements as given in the supplement of paper PMC10849652.
Some of the results follow.

Chains of the proteins cited; added tags and fusions are not shown. Lines headed by an entry give the natural chain unless they say otherwise; changes in a name come on top.
UniProt Q86XR7, whole entry, looked up: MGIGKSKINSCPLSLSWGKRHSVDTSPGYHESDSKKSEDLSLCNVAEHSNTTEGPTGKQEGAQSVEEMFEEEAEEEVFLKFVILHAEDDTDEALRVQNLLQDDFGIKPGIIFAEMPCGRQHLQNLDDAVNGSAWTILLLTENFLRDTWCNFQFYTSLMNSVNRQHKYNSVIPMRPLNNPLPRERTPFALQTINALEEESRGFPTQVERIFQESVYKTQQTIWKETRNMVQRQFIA
UniProt Q9UKI8: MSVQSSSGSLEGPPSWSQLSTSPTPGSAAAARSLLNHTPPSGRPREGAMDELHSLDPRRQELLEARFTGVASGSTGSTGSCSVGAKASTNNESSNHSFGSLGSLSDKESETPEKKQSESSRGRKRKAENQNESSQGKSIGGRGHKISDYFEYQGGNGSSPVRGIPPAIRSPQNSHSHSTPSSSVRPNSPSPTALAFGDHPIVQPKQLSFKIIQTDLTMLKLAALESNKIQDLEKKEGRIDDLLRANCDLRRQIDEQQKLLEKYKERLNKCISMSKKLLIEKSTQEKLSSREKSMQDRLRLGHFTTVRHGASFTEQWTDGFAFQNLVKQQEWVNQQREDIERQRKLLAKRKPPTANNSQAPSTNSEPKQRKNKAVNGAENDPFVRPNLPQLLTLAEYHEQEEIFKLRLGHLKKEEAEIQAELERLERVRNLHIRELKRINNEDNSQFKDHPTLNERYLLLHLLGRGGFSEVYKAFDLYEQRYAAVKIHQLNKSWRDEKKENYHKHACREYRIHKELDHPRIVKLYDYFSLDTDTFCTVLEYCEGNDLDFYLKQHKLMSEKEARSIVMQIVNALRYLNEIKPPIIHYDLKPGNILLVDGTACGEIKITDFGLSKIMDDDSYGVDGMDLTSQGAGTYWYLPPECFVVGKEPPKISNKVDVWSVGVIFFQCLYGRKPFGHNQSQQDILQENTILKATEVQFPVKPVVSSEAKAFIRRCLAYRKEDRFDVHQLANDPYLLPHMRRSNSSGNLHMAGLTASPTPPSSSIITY
UniProt O43493: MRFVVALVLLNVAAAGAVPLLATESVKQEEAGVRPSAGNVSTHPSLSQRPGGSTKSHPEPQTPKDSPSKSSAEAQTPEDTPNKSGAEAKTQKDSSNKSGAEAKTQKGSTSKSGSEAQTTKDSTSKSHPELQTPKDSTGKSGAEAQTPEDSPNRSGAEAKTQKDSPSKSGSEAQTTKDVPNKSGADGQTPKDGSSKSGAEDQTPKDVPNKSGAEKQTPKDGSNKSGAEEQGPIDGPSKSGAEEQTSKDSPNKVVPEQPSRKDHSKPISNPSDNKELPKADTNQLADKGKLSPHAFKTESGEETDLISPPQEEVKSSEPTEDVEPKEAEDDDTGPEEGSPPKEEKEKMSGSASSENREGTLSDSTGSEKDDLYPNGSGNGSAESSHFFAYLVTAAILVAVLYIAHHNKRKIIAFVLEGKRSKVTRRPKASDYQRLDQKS
UniProt Q92544: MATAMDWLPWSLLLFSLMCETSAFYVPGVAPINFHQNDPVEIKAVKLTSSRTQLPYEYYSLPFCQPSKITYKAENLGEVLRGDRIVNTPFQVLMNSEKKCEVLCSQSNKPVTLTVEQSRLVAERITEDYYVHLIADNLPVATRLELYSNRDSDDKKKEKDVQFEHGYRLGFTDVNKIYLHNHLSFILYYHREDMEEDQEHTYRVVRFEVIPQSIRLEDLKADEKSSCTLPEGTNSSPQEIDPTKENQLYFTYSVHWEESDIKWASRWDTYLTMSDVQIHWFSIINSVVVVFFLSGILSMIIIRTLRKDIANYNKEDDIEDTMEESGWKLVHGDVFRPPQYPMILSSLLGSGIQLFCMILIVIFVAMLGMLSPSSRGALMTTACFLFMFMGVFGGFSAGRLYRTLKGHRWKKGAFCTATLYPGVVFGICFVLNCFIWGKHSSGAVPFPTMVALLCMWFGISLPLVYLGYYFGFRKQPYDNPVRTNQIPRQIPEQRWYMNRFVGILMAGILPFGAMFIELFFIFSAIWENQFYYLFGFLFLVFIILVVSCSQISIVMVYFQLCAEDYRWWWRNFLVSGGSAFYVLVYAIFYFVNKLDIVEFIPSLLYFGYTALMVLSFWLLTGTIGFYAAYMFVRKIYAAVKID
UniProt Q03167: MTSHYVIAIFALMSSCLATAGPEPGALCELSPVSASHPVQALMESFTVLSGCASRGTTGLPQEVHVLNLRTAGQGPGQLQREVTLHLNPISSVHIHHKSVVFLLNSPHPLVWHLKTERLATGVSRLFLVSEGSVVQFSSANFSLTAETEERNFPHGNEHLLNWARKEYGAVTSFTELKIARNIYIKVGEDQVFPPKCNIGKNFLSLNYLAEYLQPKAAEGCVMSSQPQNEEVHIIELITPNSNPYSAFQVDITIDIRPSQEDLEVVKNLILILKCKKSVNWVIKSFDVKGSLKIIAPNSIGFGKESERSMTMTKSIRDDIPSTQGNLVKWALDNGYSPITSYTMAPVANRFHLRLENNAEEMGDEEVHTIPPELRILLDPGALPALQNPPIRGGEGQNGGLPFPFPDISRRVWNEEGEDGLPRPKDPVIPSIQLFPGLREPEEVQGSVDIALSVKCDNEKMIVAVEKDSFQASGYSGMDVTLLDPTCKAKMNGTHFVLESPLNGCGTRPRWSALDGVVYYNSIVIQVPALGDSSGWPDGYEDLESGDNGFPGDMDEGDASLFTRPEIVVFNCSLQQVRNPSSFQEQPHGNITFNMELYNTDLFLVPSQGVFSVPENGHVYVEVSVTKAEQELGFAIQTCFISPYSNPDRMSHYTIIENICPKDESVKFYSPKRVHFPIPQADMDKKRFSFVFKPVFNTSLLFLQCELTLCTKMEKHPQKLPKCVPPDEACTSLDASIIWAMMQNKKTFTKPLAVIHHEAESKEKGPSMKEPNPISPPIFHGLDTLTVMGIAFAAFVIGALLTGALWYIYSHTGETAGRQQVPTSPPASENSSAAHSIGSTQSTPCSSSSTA
UniProt Q9BVC6: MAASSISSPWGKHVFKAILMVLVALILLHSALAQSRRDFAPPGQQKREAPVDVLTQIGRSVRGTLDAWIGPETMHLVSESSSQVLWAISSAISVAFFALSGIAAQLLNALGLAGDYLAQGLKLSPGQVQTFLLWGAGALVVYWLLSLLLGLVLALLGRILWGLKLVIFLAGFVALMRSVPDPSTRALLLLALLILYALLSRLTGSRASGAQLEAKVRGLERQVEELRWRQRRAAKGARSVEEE
UniProt Q96FV9: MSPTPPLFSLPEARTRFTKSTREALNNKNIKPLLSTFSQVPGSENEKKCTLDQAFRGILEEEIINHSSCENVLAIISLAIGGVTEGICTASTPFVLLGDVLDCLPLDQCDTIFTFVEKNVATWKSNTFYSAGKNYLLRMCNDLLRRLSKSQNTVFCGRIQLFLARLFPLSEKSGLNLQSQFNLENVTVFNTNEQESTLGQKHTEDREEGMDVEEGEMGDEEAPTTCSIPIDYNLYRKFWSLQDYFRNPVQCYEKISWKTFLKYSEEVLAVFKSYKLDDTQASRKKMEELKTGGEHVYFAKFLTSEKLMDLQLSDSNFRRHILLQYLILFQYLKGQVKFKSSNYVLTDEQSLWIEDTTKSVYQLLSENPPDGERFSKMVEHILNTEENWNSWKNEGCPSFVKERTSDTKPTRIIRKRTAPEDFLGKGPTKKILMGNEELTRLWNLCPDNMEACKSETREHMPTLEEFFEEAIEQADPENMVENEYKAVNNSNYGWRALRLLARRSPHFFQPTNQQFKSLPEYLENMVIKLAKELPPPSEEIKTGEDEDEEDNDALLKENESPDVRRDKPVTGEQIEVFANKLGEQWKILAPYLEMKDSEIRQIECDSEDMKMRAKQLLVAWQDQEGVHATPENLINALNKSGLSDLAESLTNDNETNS
UniProt Q9H0V1: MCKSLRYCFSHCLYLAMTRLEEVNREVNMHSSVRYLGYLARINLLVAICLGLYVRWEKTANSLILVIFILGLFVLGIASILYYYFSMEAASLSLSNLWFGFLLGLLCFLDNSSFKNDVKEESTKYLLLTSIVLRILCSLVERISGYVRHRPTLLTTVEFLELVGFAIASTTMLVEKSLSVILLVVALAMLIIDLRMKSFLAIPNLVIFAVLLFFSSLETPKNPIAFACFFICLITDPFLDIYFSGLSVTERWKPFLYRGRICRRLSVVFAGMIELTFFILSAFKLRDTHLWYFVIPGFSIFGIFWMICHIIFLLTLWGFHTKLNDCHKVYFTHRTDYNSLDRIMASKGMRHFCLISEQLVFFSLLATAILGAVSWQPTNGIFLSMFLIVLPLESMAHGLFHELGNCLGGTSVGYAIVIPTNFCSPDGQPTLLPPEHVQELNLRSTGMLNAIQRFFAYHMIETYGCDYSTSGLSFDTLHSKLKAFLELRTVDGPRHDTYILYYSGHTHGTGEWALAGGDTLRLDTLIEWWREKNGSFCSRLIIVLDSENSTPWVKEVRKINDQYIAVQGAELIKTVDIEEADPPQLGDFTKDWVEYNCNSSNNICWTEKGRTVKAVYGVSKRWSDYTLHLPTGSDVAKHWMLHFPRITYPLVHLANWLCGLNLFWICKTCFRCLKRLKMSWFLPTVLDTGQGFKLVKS
UniProt Q86WV6: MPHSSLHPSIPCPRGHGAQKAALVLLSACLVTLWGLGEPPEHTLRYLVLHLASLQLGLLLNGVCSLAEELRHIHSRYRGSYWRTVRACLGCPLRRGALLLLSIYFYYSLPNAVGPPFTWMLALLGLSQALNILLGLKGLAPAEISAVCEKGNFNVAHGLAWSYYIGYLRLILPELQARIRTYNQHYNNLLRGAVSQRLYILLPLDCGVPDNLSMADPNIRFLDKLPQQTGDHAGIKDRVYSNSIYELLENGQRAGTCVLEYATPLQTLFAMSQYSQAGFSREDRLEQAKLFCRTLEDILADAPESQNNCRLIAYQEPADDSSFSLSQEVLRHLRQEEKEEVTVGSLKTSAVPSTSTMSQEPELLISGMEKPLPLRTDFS
UniProt Q5TEJ8: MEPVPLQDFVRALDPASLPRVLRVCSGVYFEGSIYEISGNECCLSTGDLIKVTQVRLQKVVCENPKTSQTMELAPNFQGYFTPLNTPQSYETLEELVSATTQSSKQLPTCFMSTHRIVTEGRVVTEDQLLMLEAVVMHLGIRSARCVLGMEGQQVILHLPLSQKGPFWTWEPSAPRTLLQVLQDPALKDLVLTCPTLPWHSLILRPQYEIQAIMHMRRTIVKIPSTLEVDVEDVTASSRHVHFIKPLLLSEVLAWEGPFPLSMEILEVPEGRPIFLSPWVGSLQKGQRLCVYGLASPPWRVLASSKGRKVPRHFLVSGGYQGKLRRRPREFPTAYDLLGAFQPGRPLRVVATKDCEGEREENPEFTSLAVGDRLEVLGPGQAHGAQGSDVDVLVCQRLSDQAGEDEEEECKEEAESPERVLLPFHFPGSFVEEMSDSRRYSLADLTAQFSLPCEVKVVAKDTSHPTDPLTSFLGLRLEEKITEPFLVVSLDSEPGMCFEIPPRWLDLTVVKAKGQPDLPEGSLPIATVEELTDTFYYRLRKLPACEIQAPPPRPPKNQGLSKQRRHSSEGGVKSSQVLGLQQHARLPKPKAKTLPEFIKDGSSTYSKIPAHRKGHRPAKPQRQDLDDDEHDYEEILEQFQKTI
UniProt P04183: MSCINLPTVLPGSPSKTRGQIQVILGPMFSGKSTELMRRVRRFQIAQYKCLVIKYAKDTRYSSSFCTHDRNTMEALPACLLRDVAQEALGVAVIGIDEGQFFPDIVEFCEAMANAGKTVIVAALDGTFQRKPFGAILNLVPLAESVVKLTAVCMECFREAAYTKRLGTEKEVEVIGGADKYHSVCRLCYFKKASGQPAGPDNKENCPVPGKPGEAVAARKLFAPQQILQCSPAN
UniProt Q8TDI8: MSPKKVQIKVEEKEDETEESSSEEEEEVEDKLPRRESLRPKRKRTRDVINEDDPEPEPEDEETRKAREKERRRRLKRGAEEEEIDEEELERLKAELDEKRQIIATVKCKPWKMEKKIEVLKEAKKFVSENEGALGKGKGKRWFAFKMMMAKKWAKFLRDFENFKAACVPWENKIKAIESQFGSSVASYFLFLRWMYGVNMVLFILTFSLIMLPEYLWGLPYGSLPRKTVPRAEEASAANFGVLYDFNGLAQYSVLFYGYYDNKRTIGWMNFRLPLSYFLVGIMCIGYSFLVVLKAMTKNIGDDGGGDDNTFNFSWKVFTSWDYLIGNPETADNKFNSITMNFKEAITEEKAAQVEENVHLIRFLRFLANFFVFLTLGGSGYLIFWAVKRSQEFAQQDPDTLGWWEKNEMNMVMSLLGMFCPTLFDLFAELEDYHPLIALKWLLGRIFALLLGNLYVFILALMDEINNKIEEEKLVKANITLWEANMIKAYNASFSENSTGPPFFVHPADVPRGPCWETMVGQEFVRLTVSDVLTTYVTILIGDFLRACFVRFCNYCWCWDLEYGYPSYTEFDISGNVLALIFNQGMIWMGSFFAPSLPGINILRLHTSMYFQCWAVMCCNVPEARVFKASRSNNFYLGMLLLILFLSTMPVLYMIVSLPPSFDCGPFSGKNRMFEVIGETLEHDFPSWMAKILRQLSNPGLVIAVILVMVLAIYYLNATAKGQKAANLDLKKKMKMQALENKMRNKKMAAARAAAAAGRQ

Experiments:
Test in all cases: log2 fold change, soluble protein after heating vs DMSO (PISA); higher = thermal stabilisation; K562 lysate, 10 uM; active = over 0.2 and 3.5 SD of the protein, either way, in both replicates (recomputed)
vemurafenib = compound: CCCS(=O)(=O)Nc1ccc(F)c(C(=O)c2c[nH]c3ncc(-c4ccc(Cl)cc4)cc23)c1F [vemurafenib]
In short: (§1)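 A 30 min treatment with 10 μM compound was applied to crude K562 extract at 1 mg/mL protein in PBS pH 7.4 with 1 mM MgCl2. Heating for 3 min spanned 48°C-58°C, after which aliquots were pooled, adjusted to 0.5% NP-40 at 4°C and spun at 21,000xg for 90 min. TMTpro 16plex LC-MS/MS of the supernatant, with channel sums equalised, gave values recorded as log-two fold change in thermal stability against solvent controls, from duplicates.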

[1] = compound: CCCS(=O)(=O)Nc1ccc(F)c(C(=O)c2c[nH]c3ncc(Cl)cc23)c1F
In short: as §1

barasertib = compound: CCN(CCCOc1ccc2c(Nc3cc(CC(=O)Nc4cccc(F)c4)[nH]n3)ncnc2c1)CCOP(=O)(O)O [barasertib]
In short: as §1

[2] = compound: CC[C@@H]1C(=O)N(C)c2cnc(Nc3ccc(C(=O)NC4CCN(C)CC4)cc3OC)nc2N1C1CCCC1
In short: as §1

volasertib = compound: CC[C@@H]1C(=O)N(C)c2cnc(Nc3ccc(C(=O)N[C@H]4CC[C@H](N5CCN(CC6CC6)CC5)CC4)cc3OC)nc2N1C(C)C [volasertib]
In short: as §1

[3] = compound: CCn1c(C(=O)N(C2CC2)C2CC2)cc2c3c(ncn3C)c(Nc3cc(C)n(C)n3)nc21
In short: as §1

[4] = compound: CCn1cc(-c2ccnc3[nH]c(-c4cccc(CN(C)C)c4)cc23)c(-c2ccc(NC(=O)N(C)C)cc2)n1
In short: as §1

[5] = compound: CN1CCC(CNc2ccc3ncc(-c4cccc(OC(F)(F)F)c4)n3n2)CC1
In short: as §1

saracatinib = compound: CN1CCN(CCOc2cc(OC3CCOCC3)c3c(Nc4c(Cl)ccc5c4OCO5)ncnc3c2)CC1 [saracatinib]
In short: as §1

sotrastaurin = compound: CN1CCN(c2nc(C3=C(c4c[nH]c5ccccc45)C(=O)NC3=O)c3ccccc3n2)CC1 [sotrastaurin]
In short: as §1

Measured: log2 fold change

TICAM2 isoform 2 (UniProt Q86XR7)
inactive: vemurafenib -0.012 | [1] 0.002 | barasertib -0.008 | [2] -0.075 | volasertib 0.033 | [3] -0.032 | [4] -0.12 | [5] 0.037 | saracatinib -0.02 | sotrastaurin -0.005

TIMM8A (UniProt O60220)
inactive: vemurafenib 0.026 | [1] -0.091 | barasertib -0.019 | [2] -0.223 | volasertib -0.006 | [3] 0.037 | [4] 0.028 | [5] -0.007 | saracatinib 0.084 | sotrastaurin -0.009

TIMM22 (UniProt Q9Y584)
inactive: vemurafenib -0.095 | [1] 0.012 | barasertib 0.049 | [2] 0.096 | volasertib 0.006 | [3] 0.044 | [4] -0.069 | [5] -0.014 | saracatinib -0.115 | sotrastaurin 0.002

TLK1 isoform 2 (UniProt Q9UKI8)
active: sotrastaurin 0.393
inactive: vemurafenib 0.001 | [1] -0.003 | barasertib 0.06 | [2] -0.048 | volasertib -0.078 | [3] 0.01 | [4] -0.092 | [5] 0.072 | saracatinib 0.014

THADA (UniProt Q6YHU6)
inactive: vemurafenib -0.006 | [1] 0.007 | barasertib 0.038 | [2] -0.028 | volasertib -0.037 | [3] 0.019 | [4] -0.029 | [5] 0.02 | saracatinib 0.029 | sotrastaurin 0.037

TGOLN2 isoform 7 (UniProt O43493)
inactive: vemurafenib 0.02 | [1] 0.023 | barasertib -0.023 | [2] 0.05 | volasertib 0.035 | [3] -0.094 | [4] -0.012 | [5] 0.036 | saracatinib -0.033 | sotrastaurin 0.06

TJP2 isoform 7 (UniProt Q9UDY2)
inactive: vemurafenib 0.058 | [1] 0.045 | barasertib 0.029 | [2] -0.022 | volasertib -0.063 | [3] -0.008 | [4] -0.024 | [5] -0.05 | saracatinib 0.019 | sotrastaurin 0.025

TM9SF4 (UniProt Q92544)
inactive: vemurafenib 0.063 | [1] -0.007 | barasertib 0.002 | [2] -0.003 | volasertib -0.014 | [3] 0.03 | [4] -0.175 | [5] 0.035 | saracatinib -0.006 | sotrastaurin 0.008

TMBIM6 isoform 2 (UniProt P55061)
inactive: vemurafenib -0.043 | [1] 0.034 | barasertib 0.02 | [2] -0.01 | volasertib 0.055 | [3] -0.025 | [4] -0.016 | [5] -0.004 | saracatinib 0.024 | sotrastaurin -0.074

TGFBR3 (UniProt Q03167)
inactive: vemurafenib 0.08 | [1] 0.039 | barasertib -0.099 | [2] 0.112 | volasertib 0.024 | [3] -0.02 | [4] -0.065 | [5] 0.05 | saracatinib -0.034 | sotrastaurin 0.026

TIAL1 isoform 2 (UniProt Q01085)
inactive: vemurafenib -0.009 | [1] 0.014 | barasertib -0.023 | [2] 0.072 | volasertib 0.005 | [3] 0.002 | [4] -0.076 | [5] 0.056 | saracatinib -0.02 | sotrastaurin -0.017

TIMP1 (UniProt P01033)
inactive: vemurafenib -0.05 | [1] 0.027 | barasertib 0.034 | [2] 0.033 | volasertib 0.018 | [3] -0.051 | [4] -0.002 | [5] 0.049 | saracatinib 0.029 | sotrastaurin -0.009

TMEM109 (UniProt Q9BVC6)
inactive: vemurafenib -0.043 | [1] -0.009 | barasertib -0.006 | [2] 0.091 | volasertib 0.044 | [3] -0.027 | [4] 0.059 | [5] 0.032 | saracatinib 0.012 | sotrastaurin -0.039

THOC1 (UniProt Q96FV9)
inactive: vemurafenib -0.027 | [1] 0.007 | barasertib -0.007 | [2] -0.053 | volasertib -0.01 | [3] 0.009 | [4] -0.113 | [5] 0.026 | saracatinib 0.008 | sotrastaurin 0.02

TMEM168 (UniProt Q9H0V1)
inactive: vemurafenib -0.081 | [1] 0.047 | barasertib 0.062 | [2] 0 | volasertib 0.086 | [3] -0.008 | [4] -0.064 | [5] 0.066 | saracatinib -0.007 | sotrastaurin 0.002

TIMM17A (UniProt Q99595)
inactive: vemurafenib 0.038 | [1] -0.065 | barasertib 0.026 | [2] 0.03 | volasertib -0.017 | [3] 0.059 | [4] -0.076 | [5] 0.066 | saracatinib -0.035 | sotrastaurin 0.029

TMEM126A (UniProt Q9H061)
inactive: vemurafenib 0.019 | [1] 0.02 | barasertib -0.017 | [2] 0.023 | volasertib 0.002 | [3] -0.014 | [4] -0.021 | [5] -0.009 | saracatinib 0 | sotrastaurin -0.052

TMED1 (UniProt Q13445)
inactive: vemurafenib 0.01 | [1] 0 | barasertib -0.086 | [2] 0.014 | volasertib -0.022 | [3] 0.051 | [4] 0.022 | [5] -0.013 | saracatinib 0.16 | sotrastaurin -0.019

TMEM160 (UniProt Q9NX00)
inactive: vemurafenib 0.237 | [1] 0.091 | barasertib 0.038 | [2] -0.104 | volasertib -0.027 | [3] 0.06 | [4] -0.137 | [5] 0.026 | saracatinib -0.049 | sotrastaurin -0.034

TMEM173 (UniProt Q86WV6)
inactive: vemurafenib 0.041 | [1] 0.006 | barasertib 0.107 | [2] 0.124 | volasertib 0.119 | [3] 0.021 | [4] -0.018 | [5] 0.038 | saracatinib 0.056 | sotrastaurin 0.006

Two entries picked at random from those above, as already listed:
TMEM173 (UniProt Q86WV6)
inactive: vemurafenib 0.041 | [1] 0.006 | barasertib 0.107 | [2] 0.124 | volasertib 0.119 | [3] 0.021 | [4] -0.018 | [5] 0.038 | saracatinib 0.056 | sotrastaurin 0.006

TMED1 (UniProt Q13445)
inactive: vemurafenib 0.01 | [1] 0 | barasertib -0.086 | [2] 0.014 | volasertib -0.022 | [3] 0.051 | [4] 0.022 | [5] -0.013 | saracatinib 0.16 | sotrastaurin -0.019

More results

TMED2 (UniProt Q15363)
inactive: vemurafenib -0.018 | [1] 0.003 | barasertib 0.034 | [2] 0.035 | volasertib -0.017 | [3] -0.022 | [4] -0.039 | [5] 0.012 | saracatinib -0.032 | sotrastaurin 0.004

TIA1 (UniProt P31483)
inactive: vemurafenib 0.025 | [1] 0.005 | barasertib -0.048 | [2] -0.044 | volasertib 0.038 | [3] 0.02 | [4] -0.027 | [5] 0.005 | saracatinib 0.039 | sotrastaurin -0.026

TLE5 isoform 2 (UniProt Q08117)
inactive: vemurafenib -0.019 | [1] -0.005 | barasertib -0.091 | [2] -0.026 | volasertib 0.025 | [3] -0.08 | [4] -0.04 | [5] -0.076 | saracatinib 0.063 | sotrastaurin 0.043

THEMIS2 (UniProt Q5TEJ8)
inactive: vemurafenib -0.004 | [1] 0.11 | barasertib -0.052 | [2] 0.016 | volasertib 0.132 | [3] 0.015 | [4] -0.019 | [5] 0.004 | saracatinib 0.01 | sotrastaurin -0.016

TMEM127 (UniProt O75204)
inactive: vemurafenib 0.13 | barasertib 0.102 | [2] -0.05 | saracatinib 0.002

TMED8 (UniProt Q6PL24)
inactive: vemurafenib 0.049 | [1] -0.02 | barasertib -0.065 | [2] -0.012 | volasertib -0.032 | [3] 0.055 | [4] -0.027 | [5] 0.033 | saracatinib 0.024 | sotrastaurin 0.011

TK1 (UniProt P04183)
inactive: vemurafenib 0.022 | [1] 0.013 | barasertib -0.007 | [2] 0.009 | volasertib 0.031 | [3] -0.008 | [4] -0.124 | [5] 0.104 | saracatinib -0.002 | sotrastaurin 0.002

THTPA (UniProt Q9BU02)
inactive: vemurafenib 0.009 | [1] 0.054 | barasertib -0.092 | [2] 0.073 | volasertib 0.034 | [3] -0.016 | [4] 0.084 | [5] 0.02 | saracatinib -0.04 | sotrastaurin -0.029

TMC1 (UniProt Q8TDI8)
inactive: vemurafenib 0.089 | [1] -0.02 | [2] -0.164 | volasertib -0.021 | [3] -0.059 | sotrastaurin 0.141

TM9SF2 (UniProt Q99805)
inactive: vemurafenib 0.043 | [1] 0 | barasertib 0.016 | [2] 0.005 | volasertib 0.007 | [3] -0.018 | [4] -0.105 | [5] 0.064 | saracatinib 0.003 | sotrastaurin 0

TM6SF1 (UniProt Q9BZW5)
inactive: vemurafenib 0.052 | [1] 0 | barasertib 0.056 | [2] 0.105 | volasertib 0.012 | [4] -0.104 | [5] 0.179 | saracatinib 0.002 | sotrastaurin 0.056
